This passage reports binding results from paper doi:10.1101/2025.01.29.635371.

The chains behind the UniProt entries cited, without tags or fusion partners.
UniProt P25095, whole entry: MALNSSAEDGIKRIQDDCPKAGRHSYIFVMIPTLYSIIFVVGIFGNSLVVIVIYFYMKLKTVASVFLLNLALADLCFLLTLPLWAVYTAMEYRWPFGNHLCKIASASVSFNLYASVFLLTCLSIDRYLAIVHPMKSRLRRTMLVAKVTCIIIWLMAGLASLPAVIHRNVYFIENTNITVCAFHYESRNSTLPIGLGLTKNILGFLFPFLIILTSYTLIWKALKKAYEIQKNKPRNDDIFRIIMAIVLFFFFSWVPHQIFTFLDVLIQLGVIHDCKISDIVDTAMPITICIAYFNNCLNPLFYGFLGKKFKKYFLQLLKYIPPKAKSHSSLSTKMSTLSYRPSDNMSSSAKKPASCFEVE

Results are given in words; binding and its absence hold for the method and conditions named. Some binding calls cover weakened binding; strength is not graded here.

The assay concerns the target HA-AT1aR stably expressed in mouse aortic smooth muscle cells (MOVAS-AT1R) (UniProt P25095). The assay is described as follows: radioligand binding.

B1: ^125I-Angiotensin IV (angiotensin 3-8) (peptide)
peptide: VYIHPF
modifications: 125I label (radio-iodinated; residue not stated)
On to B1, for which the binding result is “binds”.
